In article PMC11157272, “Fructose-1-kinase has pleiotropic roles in Escherichia coli” (The Journal of Biological Chemistry, 2023) one finds binding data, which are given here for one molecule.

The chains behind the UniProt entries cited, without tags or fusion partners.
UniProt P0ACP1: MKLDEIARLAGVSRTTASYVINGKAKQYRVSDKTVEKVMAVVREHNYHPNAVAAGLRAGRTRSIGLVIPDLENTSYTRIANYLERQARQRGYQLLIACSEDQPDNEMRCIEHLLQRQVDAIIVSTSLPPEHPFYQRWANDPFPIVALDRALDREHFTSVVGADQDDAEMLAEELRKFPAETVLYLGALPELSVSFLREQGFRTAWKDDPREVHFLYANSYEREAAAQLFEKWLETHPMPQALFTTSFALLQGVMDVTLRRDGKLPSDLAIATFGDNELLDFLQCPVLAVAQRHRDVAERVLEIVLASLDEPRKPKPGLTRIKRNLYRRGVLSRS

This experiment concerns the target catabolite repressor activator protein (WT Cra), untagged (E. coli) (UniProt P0ACP1). Kind of experiment: pull-down; DNA pull-down: biotinylated operator DNA (lacO^1 or O^cra) on streptavidin magnetic beads incubated with crude lysates of E. coli 3.300 over-expressing LLhF or WT Cra; cells grown in MOPS media with glycerol, with or without 20 mM fructose; washed in FB buffer (10 mM Tris-HCl, 150 mM KCl, 10 mM EDTA, 5% DMSO, 0.3 mM DTT, pH 7.4); SDS-PAGE, silver stain.

No constants are given. Whether binding was seen depends on the method and setting. In cells and extracts the contact can be indirect. Some binding calls cover weakened binding; strength is not graded here.

B1: fructose-1-kinase (FruK), endogenous, expressed from the genomic fruBKA operon (enzyme, UniProt P0AEW9 1-312)
chain: MSRRVATITLNPAYDLVGFCPEIERGEVNLVKTTGLHAAGKGINVAKVLKDLGIDVTVGGFLGKDNQDGFQQLFSELGIANRFQVVQGRTRINVKLTEKDGEVTDFNFSGFEVTPADWERFVTDSLSWLGQFDMVCVSGSLPSGVSPEAFTDWMTRLRSQCPCIIFDSSREALVAGLKAAPWLVKPNRRELEIWAGRKLPEMKDVIEAAHALREQGIAHVVISLGAEGALWVNASGEWIAKPPSVDVVSTVGAGDSMVGGLIYGLLMRESSEHTLRLATAVAALAVSQSNVGITDRPQLAAMMARVDLQPFN
B1: the binding result is listed as “binds”.
